The values that follow are results of earlier work, collected in patent publication US20110262477A1 (priority 2008, published 2011).

Some results are limits rather than exact numbers.

The conditions of the data set: imported rapidly by blood cells (Thiel et al., 2003); cited from earlier work.

Take `Nc1ncnc2c1ncn2[C@@H]1O[C@H](CO)[C@@H](O)[C@H]1O` [adenosine]: the “half life of extracellular adenosine” value is recorded as < 1 min.
